From article PMC8815882, “Screening the pandemic response box identified benzimidazole carbamates, Olorofim and ravuconazole as promising drug candidates for the treatment of eumycetoma” (PLoS Neglected Tropical Diseases, 2022) come the findings set out here.

Read-outs that look alike come from different tables or passages of the source.

The assay deals with M. mycetomatis MM55. Kind of assay: IC50 determination, 2-fold dilution series 16 to 0.03125 μM. Format: cell-based. The settings on record: Madurella mycetomatis.

`Clc1ccc(COC(Cn2ccnc2)c2ccc(Cl)cc2Cl)c(Cl)c1` (stereo not drawn) [MMV002722]: the IC50 turned out to be 220 nM (MM55, replicate 1, read-out: IC50 1 um); 220 nM (MM55, replicate 2, read-out: IC50 2 um); 250 nM (MM55, replicate 3, read-out: IC50 3 um).

A word on the IC50: it is the midpoint of a concentration-inhibition curve.
